Experiment [1] has as its target T1, endogenous RANK of RAW264.7 cells (mouse, UniProt O35305 31-625).
T1 construct: whole, on cells; Immunoprecipitated from cell lysates with anti-RANK; The species follows from the mouse cell line
T1 sequence (looked up): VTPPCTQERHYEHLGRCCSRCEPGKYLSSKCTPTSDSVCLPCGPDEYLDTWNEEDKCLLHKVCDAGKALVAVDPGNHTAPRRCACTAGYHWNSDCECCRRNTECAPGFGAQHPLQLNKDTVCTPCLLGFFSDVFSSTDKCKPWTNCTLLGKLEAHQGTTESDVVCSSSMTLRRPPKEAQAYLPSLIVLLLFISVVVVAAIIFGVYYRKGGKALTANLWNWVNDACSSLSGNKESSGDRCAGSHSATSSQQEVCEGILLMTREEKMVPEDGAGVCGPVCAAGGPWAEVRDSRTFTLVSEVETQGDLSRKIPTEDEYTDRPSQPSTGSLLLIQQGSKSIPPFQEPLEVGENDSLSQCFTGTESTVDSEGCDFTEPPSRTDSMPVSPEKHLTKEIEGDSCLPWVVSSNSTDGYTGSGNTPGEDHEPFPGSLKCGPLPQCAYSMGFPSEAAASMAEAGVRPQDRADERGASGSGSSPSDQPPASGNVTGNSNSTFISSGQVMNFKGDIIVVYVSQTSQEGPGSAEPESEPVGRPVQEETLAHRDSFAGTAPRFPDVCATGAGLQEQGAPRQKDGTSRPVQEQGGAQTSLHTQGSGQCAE
As to the kind of experiment: interaction with endogenous RANK in RAW cells (data not shown).

In experiment [2] the target is RAIN mutant K174A/R176A/A180T (from pCMV3×FLAG-hRAIN, stably expressed in RAW cells) (human) (UniProt Q96GX9). As to the kind of experiment: gel filtration chromatography. (In general: In gel filtration, larger molecules generally elute earlier.)
The target of experiment [3] is T1, endogenous RANK of RAW264.7 cells. Put plainly: co-immunoprecipitation with anti-RANK, western blot with anti-FLAG, FIG. 2A.
Experiment [4] has the same target. Put plainly: co-immunoprecipitation with anti-RANK, western blot with anti-FLAG.
In experiment [5] the target is RAIN (human RAIN, full length, untagged; pcDNA3-RAIN) (human) (UniProt Q96GX9). As to the kind of experiment: yeast two-hybrid analysis and gel filtration chromatography.

Changes are numbered by the printed parent chain. Names and notes keep the numbering of the source. Results are given in words; binding and its absence hold for the method and conditions named. For some assays here: Binding seen in cells or lysates may run through a third protein. Some results given as binding are weak or reduced against the parent protein; the word gives no strength. Tags and fused reporters may be left off the sequences shown.

B1: RAIN mutant K174A/R176A/A180T (from pCMV3×FLAG-hRAIN, stably expressed in RAW cells) (protein, human, UniProt Q96GX9 1-242, looked up, not shown: small tags and cut ends)
chain: MSGCDAREGDCCSRRCGAQDKEHPRYLIPELCKQFYHLGWVTGTGGGISLKHGDEIYIAPSGVQKERIQPEDMFVCDINEKDISGPSPSKKLKKSQCTPLFMNAYTMRGAGAVIHTHSKAAVMATLLFPGREFKITHQEMIKGIKKCTSGGYYRYDDMLVVPIIENTPEEKDLADAMAHTMNEYPDSCAVLVRRHGVYVWGETWEKAKTMCECYDYLFDIAVSMKKVGLDPSQLPVGENGIV
Consider B1, for which the binding result in experiment [1] and in experiment [2] was “binds” throughout.

B2: FLAG-tagged RAIN (human RAIN with a 3×FLAG tag at the C-terminus, from pCMV3×FLAG-hRAIN, stably expressed in RAW cells) (protein, UniProt Q96GX9 1-242, looked up, not shown: small tags and cut ends)
chain: B1 chain with A174K, A176R, T180A
Take B2: the binding result in experiment [3] and in experiment [4] was “binds” throughout.

B3: RAIN (human RAIN, full length, untagged; pcDNA3-RAIN) (protein, UniProt Q96GX9 1-242, looked up)
chain: B1 chain with A174K, A176R, T180A
On to B3, for which, in experiment [5], the binding entry is “binds”.

Source of the values: patent US20040086848A1 (University of Texas, published 2004).
